Measurements: publication PMC12040169 (PLOS Biology, 2025)
This is one part of the list.

What follows are compounds tested on T1, CTL2-GFP (C. trachomatis L2/434/Bu, GFP-expressing). Details: bulk GFP, single well; 28.5 h, 10 µM; inhibitor.
T1 construct: L2/434/Bu, GFP-expressing
Parameters: species or system HeLa; Intracellular C. trachomatis growth in HeLa cells, bulk GFP fluorescence relative to DMSO

| SMILES | % of control remaining |
| --- | --- |
| CCc1nn(CCC(C)O)c(=O)c2cc3sc(C)cc3n12 (stereo not drawn) [CBK282869] | 123.953% |
| Cc1cccc(NC(=O)CN2C(=O)S/C(=C\c3cc(C)n(-c4cc(C)ccn4)c3C)C2=O)c1 [CBK264671] | 126.954% |
| FC(F)(F)c1nc2ccccc2nc1SCc1ccco1 [CBK107201] | 126.435% |
| Cc1nn(C(C)CC(=O)NCc2ccco2)c(C)c1Br (stereo not drawn) [CBK269797] | 122.91% |
| CS(=O)(=O)c1cccc(S(=O)(=O)N2CCN(Cc3ccccc3)CC2)c1 [CBK269747] | 146.118% |
| Cc1cccc(C)c1NC(=O)c1c(NC(=O)c2ccco2)sc2c1CCC(C)C2 (stereo not drawn) [CBK265550] | 124.636% |
| Cc1ccc(/C=N/N=C2/N=C(O)C(CC(=O)Nc3ccccc3C(F)(F)F)S2)o1 (stereo not drawn) [CBK263731] | 120.462% |
| O=C(NC(C(=O)O)C12CC3CC(CC(C3)C1)C2)c1ccc([N+](=O)[O-])cc1 (stereo not drawn) [CBK261405] | 100% |
| O=C(Nc1cccc(-c2nc3ncccc3o2)c1)c1cccc(OCc2ccccc2)c1 [CBK263126] | 116.185% |
| COCCCNC(=O)C1CCCN(c2nc3c(-c4ccc(C)cc4)csc3c(=O)[nH]2)C1 (stereo not drawn) [CBK215548] | 134.99% |
| CCC(Oc1ccc(C)cc1)C(=O)Nc1ccc(S(N)(=O)=O)cc1 (stereo not drawn) [CBK270036] | 130.045% |
| CCn1c(CN2CCCC2c2nc(N(C)C)ncc2-c2ccc(F)cc2)nc2ccccc21 (stereo not drawn) [CBK285974] | 94.278% |
| NC(CC(=O)O)c1ccc(F)c(Oc2ccccc2)c1 (stereo not drawn) [CBK286912] | 118.581% |
| Cc1onc(-c2ccccc2)c1CNC(=O)c1cccc(C(F)(F)F)c1 [CBK144079] | 122.458% |
| CCc1nn(CC(=O)N2CCCCCC2)c(=O)c2cc3occc3n12 [CBK283677] | 146.237% |
| CCOC(=O)c1cccc(NS(=O)(=O)c2cccc3cccnc23)c1 [CBK034345] | 86.5065% |
| O=c1nc2n(Cc3ccccc3)c3ccccc3cc-2c(=O)[nH]1 [CBK287958] | 157.245% |
| Cc1c(C(=O)O)sc2ncn(CCCOc3ccc(Cl)cc3)c(=O)c12 [CBK286695] | 115.736% |
| COc1ccc(C(NC(=O)[C@H]2CCCN2C(=O)Cc2cccs2)c2ccccc2C)cn1 (stereo partly drawn) [CBK075053] | 169.275% |
| O=C(O)C1Nc2c(C(=O)N3CCOCC3)cccc2C2C=CCC12 (stereo not drawn) [CBK275006] | 92.305% |

| SMILES | % of control remaining |
| --- | --- |
| CCCC(=O)Nc1ccc(C(=O)N2CCN(CC)CC2)cc1 [CBK304218] | 170.982% |
| O=C(CSc1ncn(-c2ccccc2)n1)Nc1c(Cl)cccc1Cl [CBK269683] | 138.926% |
| CC(C)(C)c1cc(CCC(=O)N/N=C/c2ccco2)cc(C(C)(C)C)c1O [CBK261960] | 110.648% |
| CS(=O)(=O)N[C@H]1CO[C@H]2[C@@H]1OC[C@@H]2Nc1nccc(-c2cccs2)n1 [CBK289519] | 120.843% |
| Cn1c(Cc2ccccc2)nnc1SCC(=O)Nc1ccc(N2CCOCC2)cc1 [CBK269750] | 124.014% |
| Cc1nc(SCCO)c2c(=O)n(C)c(=O)n(CC(C)C)c2n1 [CBK306114] | 81.3023% |
| COc1ccc(C(C)c2cc3c(cc2O)OCO3)c(F)c1 (stereo not drawn) [CBK200101] | 85.4571% |
| COc1ccc(-n2c(=O)[nH]c3ncc(-c4ccco4)nc32)c(C)c1 [CBK065019] | 73.4036% |
| Cc1nc(S(=O)(=O)Cc2c(F)cccc2Cl)n(CC2CCCO2)c1C (stereo not drawn) [CBK304706] | 132.821% |
| CN(c1ncccc1C#N)C1CCN(C(=O)OCc2ccccc2)CC1 [CBK023869C] | 151.969% |
| Cc1ccc(-c2nnc3sc(-c4cnccn4)nn23)cc1 [CBK268258] | 123.111% |
| CCc1nnc(NS(=O)(=O)c2ccc(NC(=O)COc3ccc(Cl)cc3Cl)cc2)s1 [CBK200050] | 27.9435% |
| O=C(NCC1CCCCC1)C1(Cc2ccc(-c3cccnc3)cc2)CCOCC1 [CBK285591] | 99.2035% |
| O=C(O)C(O)C(O)c1nc2ccccc2[nH]1 (stereo not drawn) [CBK260955] | 95.2219% |
| COc1ccccc1CNCCc1ccc(S(N)(=O)=O)cc1 [CBK269852C] | 119.34% |
| CN(C)C(=O)c1ccc(-c2ccc(COC3CCN(C(=O)c4cc5ccccc5o4)CC3)c(S(C)(=O)=O)c2)cc1 [CBK155965] | 88.9125% |
| O=C(CC1C(=O)NCCN1C(=S)Nc1ccccc1)Nc1ccc2c(c1)OCCO2 (stereo not drawn) [CBK267999] | 102.497% |
| CN(C)C(=O)Cn1nc(-c2cc3c(s2)CCC3)oc1=O [CBK284715] | 91.393% |
| O=C(CCn1c(C(F)(F)F)cc2cccnc21)NC1CCCOC1 (stereo not drawn) [CBK284867] | 82.3675% |

Some of these compounds in order of molar mass, smallest number first.

| SMILES | % of control remaining |
| --- | --- |
| CN(C)C(=O)Cn1nc(-c2cc3c(s2)CCC3)oc1=O [CBK284715] | 91.393% |
| CCCC(=O)Nc1ccc(C(=O)N2CCN(CC)CC2)cc1 [CBK304218] | 170.982% |
| CN(C)C(=O)c1ccc(-c2ccc(COC3CCN(C(=O)c4cc5ccccc5o4)CC3)c(S(C)(=O)=O)c2)cc1 [CBK155965] | 88.9125% |
